# Earlier results as cited in patent US20100222262A1, “SUBSTITUTED 1, 3-CYCLOPENTADIONE ATTENUATED ENDOTHELIAL INFLAMMATION AND ENDOTHELIAL-MONOCYTE INTERACTIONS” (METAPROTEOMICS, LLC, priority 2008, published 2010).
# System: 85 Kinases
# Settings: Concn 1 uM
compound,measurement,value
CN[C@@H]1C[C@H]2O[C@@](C)([C@@H]1OC)n1c3ccccc3c3c4c(c5c6ccccc6n2c5c31)C(=O)NC4 [Staurosporine],hit rate (>50% Inhibition),78
